Measured values from publication PMC13156308.
These are yes or no findings as the source states them, for the method shown. For some assays here: In cells and extracts the contact can be indirect. Some entries that bind do so weakly or less than the wild type. For some assays here: Sequences can lack the tags named with a protein. Each block holds one substance with its values, some of them ahead of it.

Amino acid sequences for entries named in this document (tags omitted). A change or cut given only in a name is not applied to a line headed by its entry. Chains listed by the source or under a name are the forms on record and can include a tag or linker.
UniProt P49736: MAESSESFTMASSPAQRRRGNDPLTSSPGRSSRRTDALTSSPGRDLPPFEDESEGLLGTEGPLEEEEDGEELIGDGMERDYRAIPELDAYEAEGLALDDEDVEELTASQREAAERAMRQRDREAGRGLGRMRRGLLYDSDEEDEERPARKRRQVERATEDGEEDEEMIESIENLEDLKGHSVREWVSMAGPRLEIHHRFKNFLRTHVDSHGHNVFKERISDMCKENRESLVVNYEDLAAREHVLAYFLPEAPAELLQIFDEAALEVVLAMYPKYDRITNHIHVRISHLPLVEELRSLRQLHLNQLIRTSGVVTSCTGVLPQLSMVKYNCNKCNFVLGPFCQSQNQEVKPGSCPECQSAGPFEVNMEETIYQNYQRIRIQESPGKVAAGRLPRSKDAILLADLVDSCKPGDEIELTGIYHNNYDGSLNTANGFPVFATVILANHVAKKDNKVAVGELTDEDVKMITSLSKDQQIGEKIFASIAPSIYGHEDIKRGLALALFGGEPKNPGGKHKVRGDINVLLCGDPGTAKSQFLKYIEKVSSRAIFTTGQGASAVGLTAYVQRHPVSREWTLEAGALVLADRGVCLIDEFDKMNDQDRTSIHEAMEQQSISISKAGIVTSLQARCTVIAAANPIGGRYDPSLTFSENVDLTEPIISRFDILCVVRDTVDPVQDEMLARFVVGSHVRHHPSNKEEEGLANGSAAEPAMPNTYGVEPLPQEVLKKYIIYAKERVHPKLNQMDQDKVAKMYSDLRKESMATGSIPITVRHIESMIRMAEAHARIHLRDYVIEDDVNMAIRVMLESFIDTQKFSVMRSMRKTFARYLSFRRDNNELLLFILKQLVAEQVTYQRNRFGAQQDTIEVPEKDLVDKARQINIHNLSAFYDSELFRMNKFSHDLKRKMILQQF
MCM2-2A histone-binding domain (MCM2-2A-HBD) (P49736, form named): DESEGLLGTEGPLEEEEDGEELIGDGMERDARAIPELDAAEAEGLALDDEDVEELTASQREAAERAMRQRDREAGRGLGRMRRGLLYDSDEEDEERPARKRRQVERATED
MCM2-2A (endogenous, MCM2-2A mutant 293T cells) (human (endogenous in 293T)) (P49736, form named): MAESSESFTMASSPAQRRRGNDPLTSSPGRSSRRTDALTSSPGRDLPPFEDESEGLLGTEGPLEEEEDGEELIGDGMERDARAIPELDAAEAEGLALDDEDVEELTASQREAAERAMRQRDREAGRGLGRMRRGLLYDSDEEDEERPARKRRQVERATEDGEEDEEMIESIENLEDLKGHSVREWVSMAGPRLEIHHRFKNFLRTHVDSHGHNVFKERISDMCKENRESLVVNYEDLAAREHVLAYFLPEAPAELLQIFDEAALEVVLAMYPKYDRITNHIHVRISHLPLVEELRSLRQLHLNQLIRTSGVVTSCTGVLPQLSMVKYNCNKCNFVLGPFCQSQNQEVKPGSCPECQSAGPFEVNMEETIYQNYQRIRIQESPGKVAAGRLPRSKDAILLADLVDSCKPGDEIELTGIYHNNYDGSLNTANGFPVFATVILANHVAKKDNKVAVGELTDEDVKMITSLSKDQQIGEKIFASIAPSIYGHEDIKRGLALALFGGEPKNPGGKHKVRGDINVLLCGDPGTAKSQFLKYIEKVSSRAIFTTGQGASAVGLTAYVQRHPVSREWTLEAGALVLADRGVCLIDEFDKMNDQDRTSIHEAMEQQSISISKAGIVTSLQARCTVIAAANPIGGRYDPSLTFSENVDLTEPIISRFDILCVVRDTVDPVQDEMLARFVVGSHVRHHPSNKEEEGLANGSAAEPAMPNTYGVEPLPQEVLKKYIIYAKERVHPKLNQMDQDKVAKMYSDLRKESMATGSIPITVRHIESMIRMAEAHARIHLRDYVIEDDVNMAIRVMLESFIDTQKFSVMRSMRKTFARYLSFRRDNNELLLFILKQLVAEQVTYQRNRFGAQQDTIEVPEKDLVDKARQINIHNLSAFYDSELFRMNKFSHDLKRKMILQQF
UniProt Q9NRF9: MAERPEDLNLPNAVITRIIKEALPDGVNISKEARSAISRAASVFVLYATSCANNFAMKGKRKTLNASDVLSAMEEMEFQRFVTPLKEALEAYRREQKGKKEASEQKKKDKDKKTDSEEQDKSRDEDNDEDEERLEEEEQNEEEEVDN
UniProt Q08945: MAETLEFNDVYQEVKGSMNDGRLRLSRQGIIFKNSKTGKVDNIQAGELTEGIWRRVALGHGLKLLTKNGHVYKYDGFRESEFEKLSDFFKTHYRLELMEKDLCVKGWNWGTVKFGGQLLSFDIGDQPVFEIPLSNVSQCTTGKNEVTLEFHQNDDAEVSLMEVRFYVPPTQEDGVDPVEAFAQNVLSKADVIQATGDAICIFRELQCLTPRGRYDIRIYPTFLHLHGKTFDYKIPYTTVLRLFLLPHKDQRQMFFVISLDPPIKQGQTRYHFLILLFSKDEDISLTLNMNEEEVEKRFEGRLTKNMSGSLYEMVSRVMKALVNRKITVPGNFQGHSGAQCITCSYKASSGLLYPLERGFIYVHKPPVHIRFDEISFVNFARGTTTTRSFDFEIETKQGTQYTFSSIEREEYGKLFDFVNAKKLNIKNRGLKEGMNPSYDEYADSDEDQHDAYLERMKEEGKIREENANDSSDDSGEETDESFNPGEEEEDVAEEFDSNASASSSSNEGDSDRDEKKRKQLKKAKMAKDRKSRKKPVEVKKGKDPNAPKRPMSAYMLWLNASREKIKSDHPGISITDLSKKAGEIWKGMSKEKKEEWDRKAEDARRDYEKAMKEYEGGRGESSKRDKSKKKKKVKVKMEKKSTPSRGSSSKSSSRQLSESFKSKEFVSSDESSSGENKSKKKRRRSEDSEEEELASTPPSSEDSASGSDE

How the values were obtained:
[1] = target: full-length strep-tagged POLD3 (human) (UniProt Q15054); assay: BLI; POLD3 immobilised on Streptavidin (SAX) biosensors, BLItz, 1x PBS and 0.02% Tween; both purified
[2] = target: T1, POLD3-HA (full-length) (human) (UniProt Q15054); assay: co-IP; anti-HA beads, soluble extract of 293T cells (wild-type or MCM2-2A mutant) expressing HA-tagged POLD3 constructs, DNase I and ethidium bromide, 200 mM NaCl, 0.5% NP-40
T1 sequence: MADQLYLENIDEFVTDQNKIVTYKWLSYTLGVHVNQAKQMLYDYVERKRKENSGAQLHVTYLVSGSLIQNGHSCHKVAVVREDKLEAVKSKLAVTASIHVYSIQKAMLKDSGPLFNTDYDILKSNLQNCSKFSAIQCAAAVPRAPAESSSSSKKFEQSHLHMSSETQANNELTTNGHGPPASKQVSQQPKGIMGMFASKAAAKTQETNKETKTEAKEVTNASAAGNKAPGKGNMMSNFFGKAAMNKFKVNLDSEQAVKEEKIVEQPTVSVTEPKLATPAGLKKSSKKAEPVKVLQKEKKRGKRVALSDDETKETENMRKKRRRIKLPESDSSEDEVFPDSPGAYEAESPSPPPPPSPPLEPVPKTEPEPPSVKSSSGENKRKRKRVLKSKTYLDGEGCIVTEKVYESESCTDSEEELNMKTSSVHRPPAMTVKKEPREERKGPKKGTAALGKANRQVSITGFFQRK

[3] = target: MCM2-2A (endogenous, MCM2-2A mutant 293T cells) (human (endogenous in 293T)) (UniProt P49736); assay: co-IP; anti-MCM2 antibody and protein A/G beads, lysate of wild-type or MCM2-2A mutant 293T cells, 200 mM NaCl, 0.5% NP-40; IgG as negative control
[4] = target: MCM2 (endogenous, 293T) (human (endogenous in 293T)) (UniProt P49736); assay: as above

binding [1]: no binding
Substance: MCM2-2A histone-binding domain (MCM2-2A-HBD) (from UniProt P49736 51-160) (domain or fragment)

Substance: POLE3 (endogenous, 293T) (from UniProt Q9NRF9 1-147)
binding [2]: no binding

binding [1]: no binding
Substance: MCM2-HBD (amino acids 51-160) (from UniProt P49736 51-160) (domain or fragment)

binding [3]: no binding
binding [4]: binds
Substance: SSRP1 (endogenous, 293T) (from UniProt Q08945 1-709)
